Record: PubChem BioAssay AID686943 (Drosophila RNAi Screening Center, 2013)
Test: 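Fly genes whose loss alters ERK activation after insulin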 (primary screen). Cell system: Drosophila S2R+ haemocyte-like cells expressing YFP-tagged ERK (Rolled). Reagent: long dsRNA against Drosophila genes. Treatment: insulin stimulation versus unstimulated cells; dose and duration not given. Detection: 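Per-plate z-scores of phospho-ERK immunostaining normalised to YFP-tagged ERK, measured with and without insulin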. Direction: replicate 1, z-score of dpERK with insulin and replicate 2, z-score of dpERK with insulin: higher = more active ERK per ERK-YFP after insulin; replicate 1, z-score of dpERK under basal conditions: higher = more basal active ERK per ERK-YFP; replicate 1, z-score of ERK-YFP with insulin: higher = more YFP-tagged ERK signal.
The deposit covers about 23,000 reagents; below is a random part of those with a known target gene and a result. 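Extra replicates exist only for a retested subset of genes; insulin dose and duration not given; both raised and lowered dpERK matter.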 The numbers tell different reagents against one gene apart. Names joined by + are all predicted targets of the reagent. Not stated in the record: the amount of reagent, the time to read-out.

target | reagent no. | replicate 1, z-score of dpERK with insulin | replicate 2, z-score of dpERK with insulin | replicate 1, z-score of dpERK under basal conditions | replicate 1, z-score of ERK-YFP with insulin
CG16813 (GeneID 34724) | 1 | 0.63 | -0.15 | 0.13 | -1.29
CG5770 (GeneID 37054) | 1 | -0.93 | 0.24 | 0.42 | 0.15
Sumo (GeneID 33981) | 1 | 1.41 | 2.98 | 0.69 | -2.1
CG33964 + CG13175 | 1 | 1.01 | 0.16 | 0.31 | 0.63
CG33964 + CG13175 | 2 | 0.28 | 0.29 | -0.91 | 0.03
CG33964 + CG13175 | 3 | 0.95 | 0.64 | 0.54 | -0.3
Hmbs (GeneID 46140) | 1 | 0.41 | 1.11 | 0.25 | 0.16
CG9581 (GeneID 33017) | 1 | 0.21 | -0.65 | 2 | -0.08
CG9581 (GeneID 33017) | 2 | -0.32 | 0.33 | 0.31 | 0.77
CG34310 (GeneID 5740536) | 1 | 0.11 | -0.12 | -2.73 | -0.08
CG18132 (GeneID 33333) | 1 | -1.25 | -0.5 | -0.28 | 0.37
CG34112 (GeneID 4379842) | 1 | -0.33 | 0.14 | 0.27 | 0.33
Gas8 (GeneID 31321) | 1 | -0.58 | 1.26 | 0.28 | 1.36
PAN3 (GeneID 38369) | 1 | 0.57 | 0.11 | -0.02 | -1.89
Gnf1 (GeneID 40607) | 1 | -2.29 | -1.22 | -1.45 | -0.77
CG32213 + CG12519 + 825-Oak + 1 more | 1 | 0.37 | -0.44 | 0.17 | -0.02
Cyp303a1 (GeneID 49165) | 1 | 0.06 | -0.26 | 0.45 | 0.34
Smurf (GeneID 36999) | 1 | 1.32 | 0.35 | -0.33 | -3.96
SF2 (GeneID 53443) | 1 | 0.72 | 0 | 1.84 | -6.3
saturn (GeneID 317880) | 1 | -0.09 | 0.76 | 0.1 | 0.95
br (GeneID 44505) | 1 | 0.4 | -0.03 | -0.54 | -0.01
br (GeneID 44505) | 2 | -0.79 | -0.28 | -0.42 | 0.01
br (GeneID 44505) | 3 | -1.31 | -0.34 | -1.07 | 0.23
br (GeneID 44505) | 4 | -3.83 | -2.76 | -2.44 | 0.51
CG1850 (GeneID 35647) | 1 | -0.13 | 0.85 | -0.41 | -0.18
Cen (GeneID 35330) | 1 | 0.95 | 0.9 | 1.01 | -0.01
LManI (GeneID 34436) | 1 | 0.85 | 0.28 | 0.09 | -0.86
nol (GeneID 64867) | 1 | -0.03 | 0.07 | -0.11 | 0.41
CG10822 (GeneID 37274) | 1 | 0.34 | -0.46 | -0.71 | 0.03
spz (GeneID 43256) | 1 | -0.29 | -0.25 | 0.82 | -0.08
dpn (GeneID 35800) | 1 | 0.47 | 0.99 | -0.19 | 0.25
spn-F (GeneID 43700) | 1 | -0.41 | -0.95 | 2.04 | -0.18
CG31371 (GeneID 43626) | 1 | 0.28 | 0 | 0.3 | 0.14
CSN5 (GeneID 42000) | 1 | 0.6 | 0.5 | -0.19 | 1.28
CSN5 (GeneID 42000) | 2 | 0.68 | -0.68 | 0.98 | -2.72
CG8939 (GeneID 32568) | 1 | 0.47 | 1.11 | -0.13 | -0.45

The list goes on, starting with the last 5 of the part before.
target | reagent no. | replicate 1, z-score of dpERK with insulin | replicate 2, z-score of dpERK with insulin | replicate 1, z-score of dpERK under basal conditions | replicate 1, z-score of ERK-YFP with insulin
spn-F (GeneID 43700) | 1 | -0.41 | -0.95 | 2.04 | -0.18
CG31371 (GeneID 43626) | 1 | 0.28 | 0 | 0.3 | 0.14
CSN5 (GeneID 42000) | 1 | 0.6 | 0.5 | -0.19 | 1.28
CSN5 (GeneID 42000) | 2 | 0.68 | -0.68 | 0.98 | -2.72
CG8939 (GeneID 32568) | 1 | 0.47 | 1.11 | -0.13 | -0.45
Osi7 (GeneID 40761) | 1 | -0.18 | 0.15 | 0.49 | 0.36
E(bx) (GeneID 44811) | 1 | 0.15 | -0.18 | -0.64 | -0.25
E(bx) (GeneID 44811) | 2 | -0.85 | -0.1 | -1.57 | -1.46
E(bx) (GeneID 44811) | 3 | -0.49 | -0.22 | -2.17 | -1.58
CG3592 (GeneID 31282) | 1 | 0.43 | 0.13 | -0.22 | 0.1
CG4991 (GeneID 32695) | 1 | 0.17 | 0.7 | 0.82 | 0.62
betaGlu (GeneID 43746) | 1 | 0.51 | 0.24 | 1.09 | 0.33
Obp99c (GeneID 43494) | 1 | -0.44 | -0.17 | -0.13 | 0.32
CG46298 (GeneID 36091) | 1 | 0.35 | 1.26 | 0.4 | 0.92
CG34115 (GeneID 4379880) | 1 | 0.67 | -0.5 | 0.05 | -0.13
CG14265 (GeneID 31297) | 1 | -0.18 | 1.4 | -0.08 | 0.11
MED15 (GeneID 33223) | 1 | 1.8 | 1.88 | 0.56 | -0.09
c(2)M (GeneID 34964) | 1 | 0.62 | 0.54 | -1.49 | 0.14
Etfb (GeneID 43515) | 1 | -0.64 | 0.07 | -0.58 | 0.3
Non3 (GeneID 42183) | 1 | -0.53 | -0.16 | -0.06 | -1.6
fest (GeneID 37220) | 1 | -1.81 | -1.06 | -0.41 | 0.82
SmydA-7 (GeneID 36916) | 1 | -0.45 | -0.02 | -0.03 | 0.59
Septin1 (GeneID 33114) | 1 | 1.65 | 0.61 | 0.17 | -0.32
Sqor (GeneID 38514) | 1 | -0.21 | -0.33 | -0.64 | 0.65
CG15471 (GeneID 31412) | 1 | -1.85 | -1.85 | -0.59 | 0.43
CG4424 (GeneID 42390) | 1 | 2.2 | 0.17 | -0.35 | -0.1
